In the supplement of paper PMC10849652:
The list shows a part of the results.

Protein sequences, listed by entry. Tags and fused reporters are not part of them. Lines headed by an entry give the natural chain unless they say otherwise; changes in a name come on top.
UniProt Q3B726, whole entry, looked up: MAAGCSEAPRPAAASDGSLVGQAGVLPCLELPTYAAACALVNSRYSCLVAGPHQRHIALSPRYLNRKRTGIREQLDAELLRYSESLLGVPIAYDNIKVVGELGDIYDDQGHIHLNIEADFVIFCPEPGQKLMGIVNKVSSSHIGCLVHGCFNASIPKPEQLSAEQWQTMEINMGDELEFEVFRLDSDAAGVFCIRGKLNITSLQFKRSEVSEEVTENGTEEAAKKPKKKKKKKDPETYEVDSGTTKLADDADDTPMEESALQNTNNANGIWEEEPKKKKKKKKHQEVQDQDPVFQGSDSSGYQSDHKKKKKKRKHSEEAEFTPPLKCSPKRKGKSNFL
UniProt P68036, whole entry, looked up: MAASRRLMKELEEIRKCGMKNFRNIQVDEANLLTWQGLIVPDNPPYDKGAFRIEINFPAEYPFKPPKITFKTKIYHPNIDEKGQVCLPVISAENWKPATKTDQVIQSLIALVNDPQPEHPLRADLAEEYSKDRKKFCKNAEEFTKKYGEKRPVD
UniProt P23258, whole entry, looked up: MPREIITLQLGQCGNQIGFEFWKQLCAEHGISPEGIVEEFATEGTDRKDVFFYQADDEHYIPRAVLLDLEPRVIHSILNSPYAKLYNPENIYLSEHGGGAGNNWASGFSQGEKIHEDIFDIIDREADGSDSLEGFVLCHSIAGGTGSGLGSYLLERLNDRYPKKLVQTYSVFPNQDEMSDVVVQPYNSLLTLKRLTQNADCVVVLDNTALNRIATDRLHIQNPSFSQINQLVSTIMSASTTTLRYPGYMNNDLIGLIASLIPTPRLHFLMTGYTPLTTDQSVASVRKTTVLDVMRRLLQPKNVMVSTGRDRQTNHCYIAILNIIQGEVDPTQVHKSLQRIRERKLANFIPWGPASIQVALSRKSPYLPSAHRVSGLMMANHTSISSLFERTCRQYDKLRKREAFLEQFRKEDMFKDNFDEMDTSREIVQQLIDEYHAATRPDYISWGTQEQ
UniProt P51965: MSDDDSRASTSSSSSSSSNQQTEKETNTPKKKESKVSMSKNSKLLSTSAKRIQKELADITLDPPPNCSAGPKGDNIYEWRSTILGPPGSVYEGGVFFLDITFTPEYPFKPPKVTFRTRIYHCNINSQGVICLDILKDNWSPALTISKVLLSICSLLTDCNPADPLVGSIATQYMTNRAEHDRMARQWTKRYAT
UniProt P15374: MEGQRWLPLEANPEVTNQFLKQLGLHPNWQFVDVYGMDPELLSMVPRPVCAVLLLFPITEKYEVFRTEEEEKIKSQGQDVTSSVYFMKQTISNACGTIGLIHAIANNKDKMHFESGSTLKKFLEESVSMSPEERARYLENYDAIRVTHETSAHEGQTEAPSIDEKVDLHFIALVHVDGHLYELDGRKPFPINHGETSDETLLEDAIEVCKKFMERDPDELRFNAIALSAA
UniProt Q9H4B7, whole entry, looked up: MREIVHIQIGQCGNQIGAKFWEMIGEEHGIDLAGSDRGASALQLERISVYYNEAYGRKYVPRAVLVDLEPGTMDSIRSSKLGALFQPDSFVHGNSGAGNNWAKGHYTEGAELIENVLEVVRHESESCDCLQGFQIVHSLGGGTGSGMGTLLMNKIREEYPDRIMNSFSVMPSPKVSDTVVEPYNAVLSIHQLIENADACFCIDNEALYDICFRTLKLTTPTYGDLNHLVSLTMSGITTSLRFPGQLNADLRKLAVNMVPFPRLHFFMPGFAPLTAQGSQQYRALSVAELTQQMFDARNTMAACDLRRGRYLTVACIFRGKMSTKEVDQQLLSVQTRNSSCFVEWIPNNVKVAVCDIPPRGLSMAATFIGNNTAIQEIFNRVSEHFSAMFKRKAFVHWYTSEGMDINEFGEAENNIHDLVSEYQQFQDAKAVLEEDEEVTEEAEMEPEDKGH
UniProt P63279, whole entry, looked up: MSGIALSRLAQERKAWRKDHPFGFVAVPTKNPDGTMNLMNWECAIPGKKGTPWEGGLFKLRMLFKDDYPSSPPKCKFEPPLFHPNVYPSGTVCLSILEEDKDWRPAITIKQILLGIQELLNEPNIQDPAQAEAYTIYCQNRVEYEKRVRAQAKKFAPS
UniProt P40222: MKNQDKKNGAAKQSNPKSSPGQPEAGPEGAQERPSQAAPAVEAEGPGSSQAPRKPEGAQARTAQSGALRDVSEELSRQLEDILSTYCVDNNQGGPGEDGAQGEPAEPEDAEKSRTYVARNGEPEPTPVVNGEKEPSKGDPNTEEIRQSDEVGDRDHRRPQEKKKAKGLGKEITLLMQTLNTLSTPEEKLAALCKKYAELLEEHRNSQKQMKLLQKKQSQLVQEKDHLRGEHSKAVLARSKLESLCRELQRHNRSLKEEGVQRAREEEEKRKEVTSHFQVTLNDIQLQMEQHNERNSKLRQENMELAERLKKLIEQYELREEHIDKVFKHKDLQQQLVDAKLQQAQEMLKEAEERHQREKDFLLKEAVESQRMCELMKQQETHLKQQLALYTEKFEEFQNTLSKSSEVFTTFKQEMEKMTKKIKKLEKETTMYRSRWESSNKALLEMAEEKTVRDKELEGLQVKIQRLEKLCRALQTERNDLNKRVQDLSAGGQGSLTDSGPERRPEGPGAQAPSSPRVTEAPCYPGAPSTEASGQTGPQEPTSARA
UniProt Q9NNW7, whole entry, looked up: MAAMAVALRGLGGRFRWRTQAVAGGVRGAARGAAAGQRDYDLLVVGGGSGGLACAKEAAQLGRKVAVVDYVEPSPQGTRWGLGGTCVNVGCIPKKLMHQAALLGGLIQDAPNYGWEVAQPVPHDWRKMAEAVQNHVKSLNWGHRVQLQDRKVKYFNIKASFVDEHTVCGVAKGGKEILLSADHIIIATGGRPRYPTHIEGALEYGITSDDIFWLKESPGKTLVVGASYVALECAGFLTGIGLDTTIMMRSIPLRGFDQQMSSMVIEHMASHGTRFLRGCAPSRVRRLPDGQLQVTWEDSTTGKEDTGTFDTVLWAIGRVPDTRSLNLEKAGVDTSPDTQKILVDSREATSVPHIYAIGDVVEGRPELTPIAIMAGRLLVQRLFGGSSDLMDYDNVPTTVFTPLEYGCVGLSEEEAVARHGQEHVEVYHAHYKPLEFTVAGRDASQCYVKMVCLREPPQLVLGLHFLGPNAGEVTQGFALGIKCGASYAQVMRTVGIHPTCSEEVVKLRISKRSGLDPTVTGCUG
UniProt Q9Y5K5, whole entry, looked up: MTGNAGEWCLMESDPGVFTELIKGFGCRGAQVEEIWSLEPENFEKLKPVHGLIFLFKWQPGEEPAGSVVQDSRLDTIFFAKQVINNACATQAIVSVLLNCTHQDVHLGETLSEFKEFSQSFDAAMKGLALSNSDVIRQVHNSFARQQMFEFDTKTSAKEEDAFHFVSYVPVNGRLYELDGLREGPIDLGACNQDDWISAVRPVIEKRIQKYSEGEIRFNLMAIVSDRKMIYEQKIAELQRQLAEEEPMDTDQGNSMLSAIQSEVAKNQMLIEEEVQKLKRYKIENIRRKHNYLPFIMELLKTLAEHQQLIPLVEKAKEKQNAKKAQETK
UniProt Q96CW5, whole entry, looked up: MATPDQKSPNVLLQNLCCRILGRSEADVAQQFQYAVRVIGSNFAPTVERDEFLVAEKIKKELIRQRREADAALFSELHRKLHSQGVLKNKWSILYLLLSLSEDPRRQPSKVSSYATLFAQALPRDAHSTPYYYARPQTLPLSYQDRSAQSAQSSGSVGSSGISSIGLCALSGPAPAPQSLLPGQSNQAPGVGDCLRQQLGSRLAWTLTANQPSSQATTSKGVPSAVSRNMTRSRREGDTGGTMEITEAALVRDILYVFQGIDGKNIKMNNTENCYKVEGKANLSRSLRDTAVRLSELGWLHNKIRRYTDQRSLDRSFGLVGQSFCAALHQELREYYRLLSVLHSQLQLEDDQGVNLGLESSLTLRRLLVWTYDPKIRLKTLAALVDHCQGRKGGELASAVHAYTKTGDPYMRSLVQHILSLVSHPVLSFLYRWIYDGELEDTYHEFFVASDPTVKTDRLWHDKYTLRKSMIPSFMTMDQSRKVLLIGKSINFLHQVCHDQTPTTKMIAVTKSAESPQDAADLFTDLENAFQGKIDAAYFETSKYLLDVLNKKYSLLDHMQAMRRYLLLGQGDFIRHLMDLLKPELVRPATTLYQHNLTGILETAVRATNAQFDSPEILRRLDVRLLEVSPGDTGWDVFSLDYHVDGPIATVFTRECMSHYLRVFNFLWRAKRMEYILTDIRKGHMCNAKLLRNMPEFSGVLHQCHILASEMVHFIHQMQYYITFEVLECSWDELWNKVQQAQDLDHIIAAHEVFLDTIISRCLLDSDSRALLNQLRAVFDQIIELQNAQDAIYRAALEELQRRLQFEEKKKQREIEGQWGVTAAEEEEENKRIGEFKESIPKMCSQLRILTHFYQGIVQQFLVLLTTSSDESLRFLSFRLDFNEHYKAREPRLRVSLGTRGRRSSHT
UniProt Q04323: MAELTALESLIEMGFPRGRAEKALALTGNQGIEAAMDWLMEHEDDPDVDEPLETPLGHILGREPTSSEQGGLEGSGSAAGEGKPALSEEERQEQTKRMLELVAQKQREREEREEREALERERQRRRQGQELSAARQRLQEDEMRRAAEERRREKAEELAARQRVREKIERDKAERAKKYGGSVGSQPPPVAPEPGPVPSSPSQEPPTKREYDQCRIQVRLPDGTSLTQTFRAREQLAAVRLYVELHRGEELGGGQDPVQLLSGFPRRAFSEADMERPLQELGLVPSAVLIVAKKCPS
UniProt O14562: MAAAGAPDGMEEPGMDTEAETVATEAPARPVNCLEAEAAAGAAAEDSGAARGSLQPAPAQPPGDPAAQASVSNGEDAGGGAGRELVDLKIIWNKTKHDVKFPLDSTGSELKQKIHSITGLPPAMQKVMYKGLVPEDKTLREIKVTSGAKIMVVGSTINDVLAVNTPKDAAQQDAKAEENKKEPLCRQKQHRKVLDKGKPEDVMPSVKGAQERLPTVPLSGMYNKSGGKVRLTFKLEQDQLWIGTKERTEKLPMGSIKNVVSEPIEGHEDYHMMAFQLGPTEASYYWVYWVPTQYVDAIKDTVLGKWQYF
UniProt P51668: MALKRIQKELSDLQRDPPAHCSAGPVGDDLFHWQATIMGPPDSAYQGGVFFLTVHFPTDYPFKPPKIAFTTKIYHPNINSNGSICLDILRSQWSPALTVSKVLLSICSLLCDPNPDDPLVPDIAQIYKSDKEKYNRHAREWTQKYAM
UniProt Q9UHD9, whole entry, looked up: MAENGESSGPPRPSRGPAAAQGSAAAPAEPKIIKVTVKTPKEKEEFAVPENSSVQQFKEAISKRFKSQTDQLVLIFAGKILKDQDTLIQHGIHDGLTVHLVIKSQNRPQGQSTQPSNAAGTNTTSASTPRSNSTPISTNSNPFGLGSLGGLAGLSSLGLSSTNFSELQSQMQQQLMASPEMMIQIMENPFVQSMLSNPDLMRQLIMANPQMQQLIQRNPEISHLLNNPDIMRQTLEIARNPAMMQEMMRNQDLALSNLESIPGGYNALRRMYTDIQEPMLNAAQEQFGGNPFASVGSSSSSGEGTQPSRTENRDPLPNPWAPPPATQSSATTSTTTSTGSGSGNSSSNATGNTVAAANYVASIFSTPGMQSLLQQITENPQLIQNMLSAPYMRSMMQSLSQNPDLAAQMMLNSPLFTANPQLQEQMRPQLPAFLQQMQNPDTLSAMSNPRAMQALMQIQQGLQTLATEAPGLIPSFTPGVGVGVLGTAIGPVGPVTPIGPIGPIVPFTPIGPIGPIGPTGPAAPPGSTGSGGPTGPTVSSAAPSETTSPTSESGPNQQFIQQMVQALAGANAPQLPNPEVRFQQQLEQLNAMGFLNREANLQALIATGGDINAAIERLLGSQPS
UniProt Q01081: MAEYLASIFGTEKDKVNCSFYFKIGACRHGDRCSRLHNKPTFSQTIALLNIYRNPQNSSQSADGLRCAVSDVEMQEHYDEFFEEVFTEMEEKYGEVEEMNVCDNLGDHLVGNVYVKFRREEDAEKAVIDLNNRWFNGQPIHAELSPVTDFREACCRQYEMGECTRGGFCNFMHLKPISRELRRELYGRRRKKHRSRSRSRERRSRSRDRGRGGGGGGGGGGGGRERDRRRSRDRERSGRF
UniProt P0CG48, whole entry, looked up: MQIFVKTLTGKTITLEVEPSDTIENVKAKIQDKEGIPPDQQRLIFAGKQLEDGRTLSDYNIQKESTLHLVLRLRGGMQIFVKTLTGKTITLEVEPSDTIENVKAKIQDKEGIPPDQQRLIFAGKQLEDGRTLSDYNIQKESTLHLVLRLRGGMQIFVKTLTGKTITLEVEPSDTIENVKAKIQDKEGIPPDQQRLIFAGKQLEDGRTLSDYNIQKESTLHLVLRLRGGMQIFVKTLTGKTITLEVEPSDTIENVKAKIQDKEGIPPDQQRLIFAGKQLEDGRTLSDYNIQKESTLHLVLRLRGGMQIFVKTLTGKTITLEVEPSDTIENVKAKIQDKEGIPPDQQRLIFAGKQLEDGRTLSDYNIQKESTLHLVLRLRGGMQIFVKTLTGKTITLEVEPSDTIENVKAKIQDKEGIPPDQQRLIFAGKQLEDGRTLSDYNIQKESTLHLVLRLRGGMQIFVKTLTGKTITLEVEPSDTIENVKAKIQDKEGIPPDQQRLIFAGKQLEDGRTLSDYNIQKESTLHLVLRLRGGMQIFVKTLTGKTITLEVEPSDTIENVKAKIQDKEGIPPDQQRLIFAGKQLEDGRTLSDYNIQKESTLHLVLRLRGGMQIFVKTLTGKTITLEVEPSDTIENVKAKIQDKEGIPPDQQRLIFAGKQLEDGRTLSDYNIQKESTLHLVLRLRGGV

Compound: CC1=C(C=C(C=C1)NC(=O)C2=CC(=CC=C2)N(C)C)NC(=O)C3=CC=C(C=C3)O
Test: log2 fold change, soluble protein after heating vs DMSO (PISA); higher = thermal stabilisation; K562 lysate, 10 uM; active = over 0.2 and 3.5 SD of the protein, either way, in both replicates (recomputed)
Method in brief: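 Following dounce homogenisation of K562 pellets in PBS pH 7.4 with 1 mM MgCl2, crude extract at 1 mg/mL protein was incubated for 30 min with 10 μM compound. Aliquots were then heated for 3 min over 48°C-58°C and pooled, NP-40 was added to 0.5% at 4°C, and soluble protein was recovered as the supernatant at 21,000xg for 90 min. Channel-sum-equalised TMTpro 16plex LC-MS/MS quantified this protein. Each value, from duplicates, is a log-two fold change in thermal stability relative to solvent controls.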

Target	log2 fold change
TXN2 (UniProt Q99757)	inactive: -0.021
TWISTNB (UniProt Q3B726)	inactive: -0.015
UBE2L3 isoform 3 (UniProt P68036)	inactive: -0.007
UBE2R2 (UniProt Q712K3)	inactive: 0.022
TXNL4A (UniProt P83876)	inactive: 0.007
TXNRD1 (UniProt Q16881)	inactive: -0.019
UBE2Q1 (UniProt Q7Z7E8)	inactive: 0.016
TUBG1 (UniProt P23258)	inactive: 0
UBE2E1 (UniProt P51965)	inactive: -0.085
UCHL3 (UniProt P15374)	inactive: -0.011
TUBB1 (UniProt Q9H4B7)	inactive: 0.002
UBE2I (UniProt P63279)	inactive: 0.01
TXLNA (UniProt P40222)	inactive: -0.004
TTN isoform 12 (UniProt Q8WZ42)	inactive: 0.013
UBR2 isoform 4 (UniProt Q8IWV8)	inactive: -0.039
TUBGCP2 isoform 4 (UniProt Q9BSJ2)	inactive: 0.048
TXNRD2 (UniProt Q9NNW7)	inactive: 0.001
UAP1L1 (UniProt Q3KQV9)	inactive: -0.074

Target	log2 fold change
TUT4 (UniProt Q5TAX3)	inactive: -0.007
UCHL5 isoform 3 (UniProt Q9Y5K5)	inactive: 0.004
TTPAL (UniProt Q9BTX7)	inactive: -0.041
UBE2B (UniProt P63146)	inactive: 0.031
UBE4B isoform 4 (UniProt O95155)	inactive: 0.016
TUBGCP3 (UniProt Q96CW5)	inactive: 0.106
TUBB (UniProt P07437)	inactive: 0.014
UBE2V2 (UniProt Q15819)	inactive: -0.006
UBXN1 (UniProt Q04323)	inactive: 0.032
UBFD1 (UniProt O14562)	inactive: -0.03
UBE2D1 (UniProt P51668)	inactive: 0.043
UBQLN2 (UniProt Q9UHD9)	inactive: 0.059
TUFM (UniProt P49411)	inactive: 0.035
U2AF1 isoform 2 (UniProt Q01081)	inactive: 0.008
TUBB3 (UniProt Q13509)	inactive: 0.015
UBE2E3 (UniProt Q969T4)	inactive: 0.015
UBC (UniProt P0CG48)	inactive: 0.025

Nothing new here: entries from further up.
Target	log2 fold change
TXNL4A (UniProt P83876)	inactive: 0.007
TXNRD1 (UniProt Q16881)	inactive: -0.019
UBE2Q1 (UniProt Q7Z7E8)	inactive: 0.016
TUBG1 (UniProt P23258)	inactive: 0
UBE2E1 (UniProt P51965)	inactive: -0.085
UCHL3 (UniProt P15374)	inactive: -0.011
TUBB1 (UniProt Q9H4B7)	inactive: 0.002
